± gives the standard deviation of the averaged measurements. The reference is the same well before dosing, and untreated signal decays as well.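 Labels refer to human fibroblasts, largely primary: uterine (C12385, HUF), lung (H6013), bone (Hs27A), adrenal (HADF), skin (WS1), plus mammary HMF and breast cancer-associated Hs343T. Cancer lines are basal-like or mesenchymal-like triple-negative breast cancer. The paper counts as hits responses shifting over 3x the replicate standard deviation. The tissue of the other fibroblasts is not given here.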
System: HCC1143
Assay: relative JC-1 red fluorescence (viability) vs pre-drug, coculture with fibroblast (fraction); higher = more viable cancer cells
Method: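 JC-1 labelled TNBC cells cocultured 1:1 (1,500 cells each) with CellTrace Violet stained primary or stromal fibroblasts in 384-well plates in FluoroBrite medium, treated with one of 42 anticancer drugs at 0.1, 1, 10 or 100 uM. JC-1 red fluorescence (mitochondrial integrity in cancer cells only) was read by plate reader every 8 h for 72 h. Values are normalised to each well's pre-drug value. The stock of one drug was tenfold lower, so its dose labels may be too high.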

CO[C@H]1C[C@@H]2CC[C@@H](C)[C@@](O)(O2)C(=O)C(=O)N2CCCC[C@H]2C(=O)O[C@H]([C@H](C)C[C@@H]2CC[C@@H](O)[C@H](OC)C2)CC(=O)[C@H](C)/C=C(\C)[C@@H](O)[C@@H](OC)C(=O)[C@H](C)C[C@H](C)/C=C/C=C/C=C/1C [Rapamycin]
relative JC-1 red fluorescence
Conditions | 8 h | 16 h | 24 h | 32 h | 40 h | 48 h | 56 h | 64 h | 72 h
10 µM, coculture fibroblast: C12385 | 0.745 ± 0.0034 | 0.719 ± 0.019 | 0.708 ± 0.044 | 0.673 ± 0.055 | 0.637 ± 0.061 | 0.629 ± 0.048 | 0.611 ± 0.049 | 0.581 ± 0.065 | 0.565 ± 0.065
10 µM, coculture fibroblast: H6013 | 0.667 ± 0.021 | 0.607 ± 0.026 | 0.627 ± 0.042 | 0.68 ± 0.058 | 0.644 ± 0.064 | 0.66 ± 0.067 | 0.643 ± 0.062 | 0.638 ± 0.058 | 0.64 ± 0.051
10 µM, coculture fibroblast: H6019 | 0.702 ± 0.028 | 0.628 ± 0.041 | 0.625 ± 0.053 | 0.602 ± 0.057 | 0.595 ± 0.066 | 0.585 ± 0.073 | 0.562 ± 0.076 | 0.548 ± 0.086 | 0.546 ± 0.09
10 µM, coculture fibroblast: H6076 | 0.7202 ± 0.0055 | 0.82 ± 0.02 | 0.804 ± 0.024 | 0.729 ± 0.015 | 0.755 ± 0.017 | 0.725 ± 0.024 | 0.683 ± 0.028 | 0.66 ± 0.035 | 0.662 ± 0.028
10 µM, coculture fibroblast: H6231 | 0.708 ± 0.024 | 0.865 ± 0.021 | 0.851 ± 0.03 | 0.634 ± 0.015 | 0.767 ± 0.032 | 0.724 ± 0.034 | 0.688 ± 0.045 | 0.649 ± 0.038 | 0.616 ± 0.033
10 µM, coculture fibroblast: HADF | 0.621 ± 0.048 | 0.555 ± 0.012 | 0.577 ± 0.0083 | 0.627 ± 0.039 | 0.537 ± 0.064 | 0.539 ± 0.071 | 0.522 ± 0.077 | 0.51 ± 0.088 | 0.537 ± 0.1
10 µM, coculture fibroblast: HCFa | 0.6807 ± 0.0042 | 0.5977 ± 0.0012 | 0.604 ± 0.0071 | 0.651 ± 0.012 | 0.599 ± 0.027 | 0.606 ± 0.028 | 0.588 ± 0.037 | 0.572 ± 0.055 | 0.576 ± 0.077
10 µM, coculture fibroblast: HCPF | 0.791 ± 0.013 | 0.904 ± 0.072 | 0.873 ± 0.12 | 0.795 ± 0.014 | 0.96 ± 0.015 | 0.902 ± 0.046 | 0.853 ± 0.037 | 0.799 ± 0.039 | 0.748 ± 0.048
10 µM, coculture fibroblast: HHSteC | 0.718 ± 0.052 | 0.683 ± 0.07 | 0.728 ± 0.094 | 0.744 ± 0.11 | 0.695 ± 0.092 | 0.723 ± 0.1 | 0.716 ± 0.11 | 0.724 ± 0.12 | 0.705 ± 0.14
10 µM, coculture fibroblast: HMF | 0.7032 ± 0.0041 | 0.8306 ± 0.0016 | 0.8 ± 0.016 | 0.69 ± 0.046 | 0.764 ± 0.022 | 0.743 ± 0.057 | 0.706 ± 0.06 | 0.684 ± 0.074 | 0.651 ± 0.082
10 µM, coculture fibroblast: HPFa | 0.7934 ± 0.006 | 0.7549 ± 0.0035 | 0.781 ± 0.011 | 0.746 ± 0.022 | 0.6975 ± 0.0054 | 0.69 ± 0.011 | 0.644 ± 0.011 | 0.611 ± 0.011 | 0.58 ± 0.0087
10 µM, coculture fibroblast: HUF | 0.772 ± 0.077 | 0.708 ± 0.14 | 0.643 ± 0.18 | 0.573 ± 0.2 | 0.529 ± 0.2 | 0.515 ± 0.19 | 0.471 ± 0.18 | 0.45 ± 0.17 | 0.425 ± 0.16
10 µM, coculture fibroblast: Hs5 | 0.723 ± 0.026 | 0.819 ± 0.044 | 0.809 ± 0.059 | 0.772 ± 0.049 | 0.73 ± 0.043 | 0.689 ± 0.045 | 0.651 ± 0.037 | 0.622 ± 0.038 | 0.618 ± 0.03
10 µM, coculture fibroblast: Hs27A | 0.555 ± 0.02 | 0.485 ± 0.025 | 0.498 ± 0.03 | 0.556 ± 0.048 | 0.452 ± 0.045 | 0.458 ± 0.049 | 0.432 ± 0.039 | 0.411 ± 0.04 | 0.432 ± 0.029
10 µM, coculture fibroblast: Hs343T | 0.737 ± 0.018 | 0.859 ± 0.044 | 0.854 ± 0.027 | 0.743 ± 0.016 | 0.76 ± 0.011 | 0.704 ± 0.0077 | 0.63292 ± 0.00016 | 0.5875 ± 0.0025 | 0.54744 ± 0.00038
10 µM, coculture fibroblast: WS1 | 0.734 ± 0.021 | 0.699 ± 0.016 | 0.716 ± 0.018 | 0.699 ± 0.015 | 0.674 ± 0.024 | 0.66 ± 0.025 | 0.629 ± 0.011 | 0.6074 ± 0.0025 | 0.586 ± 0.008
100 µM, coculture fibroblast: C12385 | 0.6385 ± 0.0052 | 0.511 ± 0.023 | 0.373 ± 0.047 | 0.255 ± 0.011 | 0.209 ± 0.0037 | 0.164 ± 0.0023 | 0.129 ± 0.0033 | 0.149 ± 0.005 | 0.167 ± 0.0087
100 µM, coculture fibroblast: H6013 | 0.638 ± 0.022 | 0.501 ± 0.027 | 0.398 ± 0.008 | 0.365 ± 0.028 | 0.281 ± 0.032 | 0.234 ± 0.019 | 0.19445 ± 7.1e-07 | 0.187 ± 0.02 | 0.149 ± 0.039
100 µM, coculture fibroblast: H6019 | 0.7175 ± 0.0043 | 0.606 ± 0.022 | 0.465 ± 0.026 | 0.384 ± 0.037 | 0.313 ± 0.041 | 0.245 ± 0.04 | 0.173 ± 0.053 | 0.167 ± 0.04 | 0.19 ± 0.047
100 µM, coculture fibroblast: H6076 | 0.6224 ± 0.0061 | 0.63 ± 0.028 | 0.532 ± 0.15 | 0.443 ± 0.18 | 0.369 ± 0.18 | 0.318 ± 0.17 | 0.265 ± 0.16 | 0.237 ± 0.15 | 0.257 ± 0.13
100 µM, coculture fibroblast: H6231 | 0.782 ± 0.11 | 0.8674 ± 0.0037 | 0.897 ± 0.017 | 0.783 ± 0.17 | 0.838 ± 0.11 | 0.791 ± 0.21 | 0.589 ± 0.23 | 0.476 ± 0.19 | 0.478 ± 0.14
100 µM, coculture fibroblast: HADF | 0.5757 ± 0.0051 | 0.524 ± 0.014 | 0.442 ± 0.04 | 0.453 ± 0.05 | 0.348 ± 0.035 | 0.287 ± 0.033 | 0.245 ± 0.023 | 0.18 ± 0.0071 | 0.115 ± 0.016
100 µM, coculture fibroblast: HCFa | 0.668 ± 0.1 | 0.516 ± 0.091 | 0.424 ± 0.078 | 0.39 ± 0.08 | 0.291 ± 0.058 | 0.241 ± 0.055 | 0.194 ± 0.062 | 0.152 ± 0.054 | 0.105 ± 0.023
100 µM, coculture fibroblast: HCPF | 0.651 ± 0.023 | 0.711 ± 0.12 | 0.702 ± 0.12 | 0.601 ± 0.1 | 0.604 ± 0.12 | 0.53 ± 0.11 | 0.429 ± 0.11 | 0.35 ± 0.072 | 0.353 ± 0.053
100 µM, coculture fibroblast: HHSteC | 0.725 ± 0.099 | 0.587 ± 0.12 | 0.475 ± 0.086 | 0.398 ± 0.048 | 0.317 ± 0.02 | 0.26329 ± 6.6e-05 | 0.228 ± 0.014 | 0.234 ± 0.02 | 0.218 ± 0.014
100 µM, coculture fibroblast: HMF | 0.654 ± 0.06 | 0.656 ± 0.12 | 0.536 ± 0.19 | 0.448 ± 0.16 | 0.375 ± 0.21 | 0.336 ± 0.17 | 0.311 ± 0.091 | 0.291 ± 0.02 | 0.295 ± 0.017
100 µM, coculture fibroblast: HPFa | 0.818 ± 0.018 | 0.603 ± 0.011 | 0.4569 ± 0.00049 | 0.4581 ± 0.004 | 0.332 ± 0.011 | 0.24754 ± 0.00016 | 0.2343 ± 0.001 | 0.2656 ± 0.0003 | 0.284 ± 0.0039
100 µM, coculture fibroblast: HUF | 0.788 ± 0.11 | 0.698 ± 0.19 | 0.61 ± 0.2 | 0.479 ± 0.17 | 0.404 ± 0.13 | 0.389 ± 0.04 | 0.374 ± 0.017 | 0.355 ± 0.069 | 0.326 ± 0.14
100 µM, coculture fibroblast: Hs5 | 0.7 ± 0.025 | 0.6928 ± 0.0045 | 0.623 ± 0.077 | 0.589 ± 0.12 | 0.491 ± 0.12 | 0.42 ± 0.11 | 0.362 ± 0.084 | 0.336 ± 0.074 | 0.375 ± 0.069
100 µM, coculture fibroblast: Hs27A | 0.661 ± 0.098 | 0.645 ± 0.16 | 0.6 ± 0.22 | 0.63 ± 0.3 | 0.475 ± 0.25 | 0.462 ± 0.26 | 0.407 ± 0.26 | 0.37 ± 0.19 | 0.288 ± 0.14
100 µM, coculture fibroblast: Hs343T | 0.7 ± 0.013 | 0.7922 ± 0.007 | 0.767 ± 0.092 | 0.7 ± 0.099 | 0.646 ± 0.17 | 0.574 ± 0.17 | 0.492 ± 0.15 | 0.443 ± 0.077 | 0.4 ± 0.011
100 µM, coculture fibroblast: WS1 | 0.721 ± 0.038 | 0.643 ± 0.031 | 0.5124 ± 0.0051 | 0.414 ± 0.014 | 0.348 ± 0.04 | 0.273 ± 0.067 | 0.255 ± 0.089 | 0.281 ± 0.094 | 0.306 ± 0.097

Reference: the supplement of paper PMC6078165
